US7947735B2, “Compounds for the treatment of metabolic disorders” (Wellstat Therapeutics Corporation, priority 2006, dated 2011)
For at least one compound, name, drawing or mass did not settle the structure.

Test system: db/db mice
Assay: Antidiabetic effects in db/db mice, second experiment (Example H)
Format: in vivo
Conditions: after 8 weeks of treatment, compared to vehicle-treated controls, compound 150 mg/kg, rosiglitazone 20 mg/kg

CN(CCOc1ccc(CC2SC(=O)NC2=O)cc1)c1ccccn1 (centres unmarked) [rosiglitazone]
blood glucose: significantly lower | triglycerides: significantly lower
